Where a name gives a salt, the structure may show the parent alone. The list shows a part of the results. This data set is noisy: repeats of one test often differ as much as different tests do.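 In a drug-repurposing library screen, luminescence reads luciferase driven by eight TEAD-binding elements, stably integrated into human kidney-derived cells. Compounds scoring over five robust Z scores above the plate mean are called hits.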
Tested on: HEK293A TEAD-LUC reporter
Assay: TEAD-luciferase reporter activity (YAP activation), robust Z score vs plate; higher = stronger YAP/TEAD activation
Conditions: 24 h

Row | Structure (SMILES) | TEAD-luciferase reporter activity (compound concentration: 200 nM) | TEAD-luciferase reporter activity (compound concentration: 2 uM) | TEAD-luciferase reporter activity (compound concentration: 10 uM)
1 | O=C(Cn1c(=O)sc2ccc(Cl)cc21)N1CCN(CCO)CC1 [tiaramide] | inactive: 2.95 | inactive: -0.705 | inactive: -0.544
2 | CN1C(CSCC(F)(F)F)Nc2cc(Cl)c(S(N)(=O)=O)cc2S1(=O)=O (configuration not stated) [Polythiazide] | inactive: 0.902 | inactive: 0.106 | inactive: -1.42
3 | CCOC(=O)c1ccc(OCCN2C[C@H](O)[C@@H](O)[C@H](O)[C@H]2CO)cc1 | inactive: 2.45 | inactive: 0.551 | inactive: -0.386
4 | CC(C)OC(=O)Nc1ccc2nc(-c3cscn3)[nH]c2c1 [Cambendazole] | inactive: 3.86 |  | active: 5.06
5 | OCCN1CCN(CCCN2c3ccccc3C=Cc3ccccc32)CC1 [Opipramol hydrochloride] | inactive: -0.178 | inactive: -0.54 | inactive: 0.37
6 | O=S1(=O)CCN(CN2CCS(=O)(=O)NC2)CN1 [taurolidine] | inactive: -1.08 | active: 5.2 | inactive: -0.539
7 | C[C@@H]1C[C@H]2[C@@H]3CCC4=CC(=O)C=C[C@]4(C)C3=CC[C@]2(C)[C@H]1C(=O)CN1CCN(c2cc(N3CCCC3)nc(N3CCCC3)n2)CC1 | inactive: -0.811 | inactive: 0.446 | inactive: -0.865
8 | [N-]=[N+]=Nc1c(F)c(F)c(-c2cn3nc(S(=O)CCNC(=O)CCCC[C@@H]4SCC5NC(=O)NC54)sc3n2)c(F)c1F (some centres not stated) | inactive: 0.514 | inactive: 2.88 | inactive: 0.947
9 | COCC(O)Cn1ccnc1[N+](=O)[O-] (configuration not stated) [Misonidazole] | inactive: 0.723 | inactive: 0.0795 | inactive: 0.0506
10 | O=C(N[C@H]1CCN(C(=O)c2cc(C(F)(F)F)cc(C(F)(F)F)c2)[C@H](Cc2ccc(Cl)cc2)C1)c1ccnc2ccccc12 | inactive: -0.449 | inactive: -0.427 | inactive: 3.5
11 | CCc1oc2ccccc2c1C(=O)c1ccc(OCC(=O)O)cc1 | inactive: -0.653 | inactive: -0.427 | inactive: 0.111
12 | Cc1ccc(C(=O)Nc2ccc(S(=O)(=O)O)c3cc(S(=O)(=O)O)cc(S(=O)(=O)O)c23)cc1NC(=O)c1cccc(NC(=O)Nc2cccc(C(=O)Nc3cc(C(=O)Nc4ccc(S(=O)(=O)O)c5cc(S(=O)(=O)O)cc(S(=O)(=O)O)c45)ccc3C)c2)c1 [suramin, NIH] | inactive: -1.57 | inactive: -1.07 | inactive: 0.116
13 | COCC(=O)N1CCCN(c2nc3ncccc3o2)CC1 | inactive: -0.458 |  | inactive: 0.339
14 | CCCCCCC(=O)OC[C@H]1O[C@H](O[C@H]2O[C@H](COC(=O)CCCCCC)[C@@H](O)[C@H](O)[C@H]2O)[C@H](O)[C@@H](O)[C@@H]1O | inactive: 1.83 | inactive: -1.06 | inactive: -0.608
15 | COc1cc(NC(C)CCCNC2=C(C(C)=O)CCO2)c2ncccc2c1 (configuration not stated) | inactive: 1.12 |  | inactive: 1.4
16 | COc1cc(NC(C)CCCNC2=C(C(C)=O)CCO2)c2ncccc2c1 (configuration not stated) [analog of CDRI-80-53] |  | inactive: -0.943 | 
17 | Cc1cc(-c2c3ccccc3c(Br)c3sc(C)c(C)c23)cc(C)c1O[C@H](Cc1ccccc1)C(=O)O [Ertiprotafib] | inactive: -1.4 | inactive: -1.39 | inactive: -0.623
18 | O=C(c1ccc(Oc2ccc(F)cc2)nc1)N1CCCN(C2CCC2)CC1 | inactive: 0.658 | inactive: -0.425 | inactive: -2.4
19 | CC(=O)O[C@@H]1CC[C@@]2(C)[C@@H](CC[C@]3(C)[C@@H]2CC=C2[C@@H]4[C@@H](C)[C@H](C)CC[C@]4(C)CC[C@]23C)[C@@]1(C)C(=O)O [Acetyl-beta-boswellic acid] | inactive: -2.49 | inactive: 0.286 | inactive: 0.534
20 | COc1ccc(-c2cc(CCCC(=O)N(C)O)sc2-c2ccc(OC)cc2)cc1 | active: 5.23 | inactive: -2.28 | inactive: -1.53
21 | CS(=O)(=O)c1ccc(NC(=O)Nc2ccccc2)cc1 | inactive: -0.192 | inactive: 0.165 | inactive: -0.948
22 | CNc1cc(-c2csc(N(C)C(=O)c3ccc(F)cc3)n2)ncn1 | inactive: -0.225 | inactive: 0.646 | inactive: -0.489
23 | Nc1nc(N)c2c(n1)NCCC(c1ccccc1)=N2 | inactive: -1.27 | inactive: 0.8 | active: 15.1
24 | FCOC(C(F)(F)F)C(F)(F)F [sevoflurane] | inactive: -1.19 | inactive: 0.0579 | inactive: -1.54
25 | CC(C)c1ccc(N2N=C3CSCC=C3C(C#N)=C2N)cc1 | inactive: 0.405 | inactive: -1.17 | inactive: 1.23
26 | CN1CCC(C(=O)N2Cc3ccccc3CC3(CCCN3C)C2)CC1 (configuration not stated) | inactive: 1.29 |  | inactive: -0.931

3 records drawn at random from the list so far:
Row | Structure (SMILES) | TEAD-luciferase reporter activity (compound concentration: 200 nM) | TEAD-luciferase reporter activity (compound concentration: 2 uM) | TEAD-luciferase reporter activity (compound concentration: 10 uM)
13 | COCC(=O)N1CCCN(c2nc3ncccc3o2)CC1 | inactive: -0.458 |  | inactive: 0.339
3 | CCOC(=O)c1ccc(OCCN2C[C@H](O)[C@@H](O)[C@H](O)[C@H]2CO)cc1 | inactive: 2.45 | inactive: 0.551 | inactive: -0.386
4 | CC(C)OC(=O)Nc1ccc2nc(-c3cscn3)[nH]c2c1 [Cambendazole] | inactive: 3.86 |  | active: 5.06

(listing goes on)

Row | Structure (SMILES) | TEAD-luciferase reporter activity (compound concentration: 200 nM) | TEAD-luciferase reporter activity (compound concentration: 2 uM) | TEAD-luciferase reporter activity (compound concentration: 10 uM)
27 | CCCCOC(=O)NS(=O)(=O)c1sc(CC(C)C)cc1-c1ccc(Cn2ccnc2)cc1 | inactive: -1.45 | inactive: -0.364 | inactive: 1.07
28 | COc1cccc(-c2cc(F)ccc2[C@H]2Cc3nc(N)nc(C)c3C(=O)N2)n1 | inactive: -2.07 | inactive: -1.22 | inactive: -3.53
29 | CCC(=O)N1Cc2ccccc2CC2(CCCCN2CC2CCNC2)C1 (configuration not stated) | inactive: 2.32 |  | inactive: -0.0658
30 | Cc1cn(-c2cc(C)c3[nH]c(=O)ccc3c2)c(C)n1 | inactive: -1.49 | inactive: -1.2 | inactive: 3.54
31 | COc1ccc(CCN(C)CCCOc2ccc(S(=O)(=O)c3c(C(C)C)c4ccccc4n3C)cc2)cc1OC | inactive: -0.881 | inactive: 2.32 | inactive: -0.736
32 | N#Cc1cc(O)c(O)c(C#N)c1/C=C/CC1CCCC1 | inactive: 0.599 | inactive: 0.0159 | inactive: 2.37
33 | c1ccc2c(CCC3CCNCC3)c[nH]c2c1 [indalpine] | inactive: -1.14 |  | inactive: -1.11
34 | COC1C(O)C(O)C(O)C(O)C1O [D-Pinitol] | inactive: -1.59 | inactive: -0.385 | inactive: 0.442
35 | Cn1nnc(-c2ccc(-c3ccc(N4C[C@H](COP(=O)([O-])O)OC4=O)cc3F)cn2)n1 [Tedizolid phosphate sodium] | inactive: 1.11 | inactive: -1.35 | inactive: -0.653
36 | CCC(/C=C/C(=O)N1CCc2ccccc21)NC(=O)C1(N)CCOCC1 (configuration not stated) | inactive: 0.555 | inactive: -0.298 | inactive: -0.181
37 | CCCCCCCCCCCC(=O)c1c(O)cc(O)c(C2CC(c3ccc(O)cc3)Oc3cc(O)ccc32)c1O (configuration not stated) | inactive: -0.914 | inactive: -0.0903 | inactive: 2
38 | OC(C1=CC(=C(c2ccccn2)c2ccccn2)C=C1)(c1ccccn1)c1ccccn1 | inactive: 0.739 | inactive: -0.425 | inactive: 1.9
39 | CC(C)Cc1ccc(C(C)C(=O)OCc2ccccn2)cc1 (configuration not stated) [ibuprofen piconol] | inactive: -1.29 | inactive: -0.799 | inactive: -0.41
40 | C[C@H](NC(=O)c1c(C(F)F)nn(C)c1Oc1cccc(C(F)(F)F)c1)c1ccc(C(=O)O)cc1 | inactive: -0.521 | inactive: -1.73 | inactive: 0.0944
41 | CCC(=O)N(C)Cc1c(-c2ccc(Cl)cc2)nc2ccccn12 | inactive: -0.728 | inactive: -0.26 | inactive: -0.954
42 | CC(=O)O[C@]1(C(C)=O)CC[C@H]2[C@@H]3CCC4=CC(=O)CC[C@]4(C)[C@H]3CC[C@@]21C [17-Acetoxyprogesterone] | inactive: 4.3 | inactive: 1.81 | inactive: 0.7
43 | CC1(C)CC[C@]2(C)CC[C@]3(C)C(=CC[C@@H]4[C@@]5(C)CC[C@@H](O)[C@](C)(C(=O)O)[C@@H]5CC[C@]43C)[C@@H]2C1 [Boswellic acid] | inactive: -1.86 |  | inactive: 0.388
44 | CC1(C)CC[C@]2(C)CC[C@]3(C)C(=CC[C@@H]4[C@@]5(C)CC[C@@H](O)[C@](C)(C(=O)O)[C@@H]5CC[C@]43C)[C@@H]2C1 [Boswellic acids] |  | inactive: -0.139 | 
45 | CCCc1c(Cn2ccnc2-c2ncccc2F)ncn2nc(C)nc12 [adipiplon] | inactive: -0.502 | inactive: 0.599 | active: 5.37
46 | O=C(Nc1ccccc1Br)N[C@@H]1CCN(c2ccc(C(F)(F)F)cn2)C1 | inactive: -0.247 | inactive: -1.32 | inactive: -1.44
47 | CCNC(=O)[C@@H]1CCCN1C(=O)[C@H](CCCNC(=N)N)NC(=O)[C@H](CC(C)C)NC(=O)[C@@H](Cc1cn(Cc2ccccc2)cn1)NC(=O)[C@H](Cc1ccc(O)cc1)NC(=O)[C@H](CO)NC(=O)[C@H](Cc1c[nH]c2ccccc12)NC(=O)[C@H](Cc1c[nH]cn1)NC(=O)[C@@H]1CCC(=O)N1 [histrelin] | inactive: -0.442 | inactive: -1.15 | inactive: -0.304
48 | Cn1cc(-c2cnn3c(N)c(Br)c(C4CCCNC4)nc23)cn1 (configuration not stated) | inactive: 0.168 | inactive: 0.588 | inactive: -0.308
49 | O=C(O)CCCC(=O)NCCc1c[nH]cn1 [Dicarbamine] | inactive: 0.567 | inactive: 0.176 | inactive: -0.685
50 | COc1ccc2c(c1)Oc1ccc(C(=O)O)cc1N=C2C | inactive: 3.4 | inactive: 0.135 | inactive: 0.465
51 | CN(C)CCn1cc(C(=O)N2CCC3(CC2)OCc2ccccc23)c2ccc(Cl)cc21 | inactive: 0.837 | inactive: 0.939 | inactive: 3.75

Reference: the supplement of paper PMC10735217
